No constants are given. Whether binding was seen depends on the method and setting. In cells and extracts the contact can be indirect. Some results given as binding are weak or reduced against the parent protein; the word gives no strength. Tags and fused reporters may be left off the sequences shown.

Protein sequences, listed by entry. Tags and fused reporters are not part of them. Residues count along the entry.
UniProt Q9QUN7, residues 25-784: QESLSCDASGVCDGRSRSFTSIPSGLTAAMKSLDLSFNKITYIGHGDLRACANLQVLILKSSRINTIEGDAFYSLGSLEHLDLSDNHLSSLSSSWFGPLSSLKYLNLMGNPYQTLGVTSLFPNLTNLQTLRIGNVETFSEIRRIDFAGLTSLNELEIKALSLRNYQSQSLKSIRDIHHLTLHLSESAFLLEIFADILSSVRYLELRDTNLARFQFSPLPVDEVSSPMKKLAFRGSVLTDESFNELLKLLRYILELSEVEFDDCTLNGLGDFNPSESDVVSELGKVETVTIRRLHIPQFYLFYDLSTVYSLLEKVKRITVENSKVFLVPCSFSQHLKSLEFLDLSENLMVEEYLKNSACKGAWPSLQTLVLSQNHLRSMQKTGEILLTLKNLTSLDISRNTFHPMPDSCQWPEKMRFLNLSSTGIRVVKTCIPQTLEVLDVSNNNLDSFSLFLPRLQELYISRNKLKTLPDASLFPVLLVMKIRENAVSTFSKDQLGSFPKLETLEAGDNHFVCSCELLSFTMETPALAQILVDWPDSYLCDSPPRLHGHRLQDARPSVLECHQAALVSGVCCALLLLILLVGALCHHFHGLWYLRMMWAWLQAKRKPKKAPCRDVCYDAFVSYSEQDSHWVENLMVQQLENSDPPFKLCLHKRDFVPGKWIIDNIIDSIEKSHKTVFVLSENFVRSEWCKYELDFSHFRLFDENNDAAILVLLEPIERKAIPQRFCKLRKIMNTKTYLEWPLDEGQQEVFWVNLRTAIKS
UniProt Q9QUK6, residues 26-835: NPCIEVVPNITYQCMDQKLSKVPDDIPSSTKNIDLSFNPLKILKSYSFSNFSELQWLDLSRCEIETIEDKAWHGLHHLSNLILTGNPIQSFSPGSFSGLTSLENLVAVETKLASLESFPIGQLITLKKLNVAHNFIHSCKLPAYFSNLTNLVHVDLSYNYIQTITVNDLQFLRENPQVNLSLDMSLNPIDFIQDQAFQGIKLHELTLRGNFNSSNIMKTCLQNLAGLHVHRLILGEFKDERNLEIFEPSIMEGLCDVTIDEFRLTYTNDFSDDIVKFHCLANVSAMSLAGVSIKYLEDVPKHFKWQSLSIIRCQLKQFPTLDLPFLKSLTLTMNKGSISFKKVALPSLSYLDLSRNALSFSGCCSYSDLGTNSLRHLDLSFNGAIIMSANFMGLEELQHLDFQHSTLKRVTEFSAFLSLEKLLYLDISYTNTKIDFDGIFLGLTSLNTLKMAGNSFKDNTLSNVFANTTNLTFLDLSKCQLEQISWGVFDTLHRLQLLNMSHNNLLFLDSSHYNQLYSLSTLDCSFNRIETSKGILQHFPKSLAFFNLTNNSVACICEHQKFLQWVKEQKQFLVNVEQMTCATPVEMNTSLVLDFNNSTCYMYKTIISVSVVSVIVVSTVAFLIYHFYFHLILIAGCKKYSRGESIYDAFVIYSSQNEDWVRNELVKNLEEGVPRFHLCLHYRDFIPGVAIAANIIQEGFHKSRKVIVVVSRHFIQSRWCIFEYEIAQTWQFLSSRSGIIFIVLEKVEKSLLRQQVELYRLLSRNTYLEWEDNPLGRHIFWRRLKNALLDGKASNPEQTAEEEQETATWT

For one molecule, binding results are on record in PMC4770718.

Experiment [1] has as its target Toll-like receptor 2 (mouse) (mouse (endogenous in macrophages of C57BL/6 mice)) (UniProt Q9QUN7). Nature of the experiment: co-IP; mouse macrophages treated with PPE26 (10 μg/ml) for 6 h, lysed in RIPA buffer; lysates immunoprecipitated with anti-His (methods: anti-PPE26), anti-TLR2 or anti-TLR4 and control IgG; blots with anti-His, anti-TLR2, anti-TLR4; only the binder purified.

Experiment [2] deals with Toll-like receptor 4 (mouse) (mouse (endogenous in macrophages of C57BL/6 mice)) (UniProt Q9QUK6). The description is as above.

B1: Recombinant PPE26 (Rv1789) of M. tuberculosis H37Rv, His-tagged (protein, UniProt Q79FK6 1-393)
chain: MDFGALPPEVNSVRMYAGPGSAPMVAAASAWNGLAAELSSAATGYETVITQLSSEGWLGPASAAMAEAVAPYVAWMSAAAAQAEQAATQARAAAAAFEAAFAATVPPPLIAANRASLMQLISTNVFGQNTSAIAAAEAQYGEMWAQDSAAMYAYAGSSASASAVTPFSTPPQIANPTAQGTQAAAVATAAGTAQSTLTEMITGLPNALQSLTSPLLQSSNGPLSWLWQILFGTPNFPTSISALLTDLQPYASFFYNTEGLPYFSIGMGNNFIQSAKTLGLIGSAAPAAVAAAGDAAKGLPGLGGMLGGGPVAAGLGNAASVGKLSVPPVWSGPLPGSVTPGAAPLPVSTVSAAPEAAPGSLLGGLPLAGAGGAGAGPRYGFRPTVMARPPFAG
Regarding B1, the results for the binding entry in experiment [1] and in experiment [2] were “binds” and “no binding (tested: 10μg/ml)”, respectively.
